# No constants are given. Whether binding was seen depends on the method and setting. For some assays here: Binding seen in cells or lysates may run through a third protein. Some results given as binding are weak or reduced against the parent protein; the word gives no strength.
# Sequences of proteins named here, by UniProt entry; tags and fusion partners are left off.
# UniProt P63104: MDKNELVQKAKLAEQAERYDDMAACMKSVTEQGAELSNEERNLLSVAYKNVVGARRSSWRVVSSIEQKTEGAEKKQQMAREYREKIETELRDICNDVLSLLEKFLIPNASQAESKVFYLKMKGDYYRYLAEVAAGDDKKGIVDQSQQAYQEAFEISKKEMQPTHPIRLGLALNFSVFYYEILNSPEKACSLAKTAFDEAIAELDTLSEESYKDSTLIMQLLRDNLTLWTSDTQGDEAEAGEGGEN
# UniProt P62993: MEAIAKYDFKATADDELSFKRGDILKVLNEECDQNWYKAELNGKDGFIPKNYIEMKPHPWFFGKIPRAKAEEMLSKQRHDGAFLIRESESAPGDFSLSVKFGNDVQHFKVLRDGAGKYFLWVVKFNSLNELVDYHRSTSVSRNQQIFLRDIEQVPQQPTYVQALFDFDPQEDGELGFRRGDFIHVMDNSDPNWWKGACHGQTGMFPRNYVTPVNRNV
# Tests used:
# [1] = molecular target: positive control phospho-peptide RRHRsAPGVR; assay: peptide or protein array; data not shown; comparable SPOT membranes probed with GST-14-3-3 isoform zeta; both purified
# [2] = molecular target: positive control phospho-peptide RRSRsFPVTF; assay: as above
# [3] = molecular target: positive control phospho-peptide RRFRsLPAAH; assay: as above
# [4] = molecular target: T1, endogenous POB1 full length (HeLa) (human (endogenous in HeLa)) (UniProt Q8NFH8); assay: co-IP; endogenous proteins, HeLa cells starved 4 hours, with or without EGF 100 ng/ml; immunoprecipitated with anti-POB1; blots with anti-Grb2 or anti-14-3-3 zeta
# T1 sequence: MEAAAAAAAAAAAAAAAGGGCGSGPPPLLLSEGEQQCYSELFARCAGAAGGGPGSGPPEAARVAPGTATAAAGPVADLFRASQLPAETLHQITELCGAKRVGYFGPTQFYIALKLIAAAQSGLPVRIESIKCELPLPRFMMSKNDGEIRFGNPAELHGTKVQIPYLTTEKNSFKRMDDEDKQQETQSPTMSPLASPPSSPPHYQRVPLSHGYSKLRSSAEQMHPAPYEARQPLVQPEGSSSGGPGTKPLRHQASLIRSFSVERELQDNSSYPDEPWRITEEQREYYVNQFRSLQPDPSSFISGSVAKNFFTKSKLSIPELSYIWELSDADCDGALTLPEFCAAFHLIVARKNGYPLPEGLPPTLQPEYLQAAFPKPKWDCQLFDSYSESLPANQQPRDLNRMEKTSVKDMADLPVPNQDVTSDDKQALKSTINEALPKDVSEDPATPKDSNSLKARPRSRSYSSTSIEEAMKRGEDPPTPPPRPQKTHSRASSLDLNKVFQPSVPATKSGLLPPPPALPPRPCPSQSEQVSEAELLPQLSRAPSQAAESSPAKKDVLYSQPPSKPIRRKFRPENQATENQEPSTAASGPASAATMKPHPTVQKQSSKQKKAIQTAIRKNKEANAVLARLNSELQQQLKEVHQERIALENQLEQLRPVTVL
binding [4],Substance,binding [1],binding [2],binding [3]
,GST-14-3-3 ζ (from UniProt P63104 1-245),binds,binds,binds
binds,endogenous 14-3-3 zeta (HeLa) (from UniProt P63104 1-245),,,
binds,endogenous Grb2 (HeLa) (from UniProt P62993 1-217),,,

# Reference: article PMC2494995, “The central proline rich region of POB1/REPS2 plays a regulatory role in epidermal growth factor receptor endocytosis by binding to 14-3-3 and SH3 domain-containing proteins” (BMC Biochemistry, 2008)
